Reference: article PMC8931434
Residue numbers refer to the chain shown, from its start. No constants are given. Whether binding was seen depends on the method and setting. In cells and extracts the contact can be indirect. Some results given as binding are weak or reduced against the parent protein; the word gives no strength. For some of these results: Where a sequence is shown, tags or fusion partners need not be part of it.

Amino acid sequences for entries named in this document (tags omitted).
UniProt Q6PCB7: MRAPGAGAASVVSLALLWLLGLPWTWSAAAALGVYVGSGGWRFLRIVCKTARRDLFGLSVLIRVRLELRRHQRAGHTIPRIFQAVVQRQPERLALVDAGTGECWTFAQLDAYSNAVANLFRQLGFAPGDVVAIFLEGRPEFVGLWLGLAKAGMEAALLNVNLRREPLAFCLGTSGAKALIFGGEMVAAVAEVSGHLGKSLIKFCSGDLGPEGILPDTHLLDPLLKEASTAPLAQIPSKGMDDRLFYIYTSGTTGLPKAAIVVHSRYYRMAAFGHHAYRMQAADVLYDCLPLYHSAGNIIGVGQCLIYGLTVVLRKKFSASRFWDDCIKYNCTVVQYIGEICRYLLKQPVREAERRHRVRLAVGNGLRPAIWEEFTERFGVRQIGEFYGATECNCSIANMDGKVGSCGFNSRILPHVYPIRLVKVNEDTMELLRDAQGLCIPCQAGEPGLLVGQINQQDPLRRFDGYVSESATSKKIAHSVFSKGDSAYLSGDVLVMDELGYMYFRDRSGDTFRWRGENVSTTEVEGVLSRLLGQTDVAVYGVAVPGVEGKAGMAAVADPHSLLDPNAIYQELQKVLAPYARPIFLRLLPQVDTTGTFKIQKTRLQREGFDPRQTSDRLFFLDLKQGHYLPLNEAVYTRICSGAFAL
UniProt Q6P1M0: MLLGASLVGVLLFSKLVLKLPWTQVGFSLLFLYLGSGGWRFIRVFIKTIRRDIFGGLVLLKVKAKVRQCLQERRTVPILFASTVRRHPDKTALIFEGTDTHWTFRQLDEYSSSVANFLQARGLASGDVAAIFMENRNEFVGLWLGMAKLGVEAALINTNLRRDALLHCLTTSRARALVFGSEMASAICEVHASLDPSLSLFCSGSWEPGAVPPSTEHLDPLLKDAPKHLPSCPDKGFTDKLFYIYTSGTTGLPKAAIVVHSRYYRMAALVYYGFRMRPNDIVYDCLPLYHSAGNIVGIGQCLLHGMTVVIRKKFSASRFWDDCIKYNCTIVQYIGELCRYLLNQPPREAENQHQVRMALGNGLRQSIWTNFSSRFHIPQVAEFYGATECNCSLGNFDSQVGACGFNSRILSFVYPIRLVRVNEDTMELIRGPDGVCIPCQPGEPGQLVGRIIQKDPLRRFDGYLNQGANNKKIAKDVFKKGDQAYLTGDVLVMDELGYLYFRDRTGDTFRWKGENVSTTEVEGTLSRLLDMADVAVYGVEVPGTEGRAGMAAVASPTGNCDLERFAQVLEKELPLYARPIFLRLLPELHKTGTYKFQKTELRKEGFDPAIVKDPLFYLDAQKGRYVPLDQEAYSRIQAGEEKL

Tests used:
CerS2^Δ338–344-HA = target: T1, CerS2^Δ338–344-HA (UniProt Q96G23); assay: co-IP; CerS2-HA or its mutants with FATP2-Flag transfected for 48 h into CerS2−/− Hek293T, lysis in 150 mM NaCl, 50 mM Tris–HCl pH 7.4, 1% Nonidet P-40, rabbit anti-HA antibody and protein A agarose at 4 °C, blot with anti-Flag
T1 sequence: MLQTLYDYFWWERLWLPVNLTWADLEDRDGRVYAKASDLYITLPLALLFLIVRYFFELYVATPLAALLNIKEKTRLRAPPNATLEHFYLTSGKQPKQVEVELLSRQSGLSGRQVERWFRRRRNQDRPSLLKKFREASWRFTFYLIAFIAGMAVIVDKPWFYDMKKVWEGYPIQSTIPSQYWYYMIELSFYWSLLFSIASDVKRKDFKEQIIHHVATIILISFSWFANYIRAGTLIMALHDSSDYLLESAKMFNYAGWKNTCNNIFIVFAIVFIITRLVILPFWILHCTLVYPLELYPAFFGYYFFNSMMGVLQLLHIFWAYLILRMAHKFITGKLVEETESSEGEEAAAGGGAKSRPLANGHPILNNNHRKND

CerS2^H212A-H213A-HA = target: T2, CerS2^H212A-H213A-HA (UniProt Q96G23); assay: as above
T2 sequence: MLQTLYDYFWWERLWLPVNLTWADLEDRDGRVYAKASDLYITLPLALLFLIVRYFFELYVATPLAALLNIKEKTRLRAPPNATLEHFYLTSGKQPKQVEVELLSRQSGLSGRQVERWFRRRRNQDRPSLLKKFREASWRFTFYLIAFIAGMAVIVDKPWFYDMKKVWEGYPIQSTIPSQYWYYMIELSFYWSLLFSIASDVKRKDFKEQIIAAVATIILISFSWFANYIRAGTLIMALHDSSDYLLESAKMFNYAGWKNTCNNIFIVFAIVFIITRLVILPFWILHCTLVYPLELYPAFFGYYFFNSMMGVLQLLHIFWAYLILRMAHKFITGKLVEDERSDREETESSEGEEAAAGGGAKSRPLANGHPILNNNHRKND

CerS2^Δ68–118-HA = target: T3, CerS2^Δ68–118-HA (UniProt Q96G23); assay: as above
T3 sequence: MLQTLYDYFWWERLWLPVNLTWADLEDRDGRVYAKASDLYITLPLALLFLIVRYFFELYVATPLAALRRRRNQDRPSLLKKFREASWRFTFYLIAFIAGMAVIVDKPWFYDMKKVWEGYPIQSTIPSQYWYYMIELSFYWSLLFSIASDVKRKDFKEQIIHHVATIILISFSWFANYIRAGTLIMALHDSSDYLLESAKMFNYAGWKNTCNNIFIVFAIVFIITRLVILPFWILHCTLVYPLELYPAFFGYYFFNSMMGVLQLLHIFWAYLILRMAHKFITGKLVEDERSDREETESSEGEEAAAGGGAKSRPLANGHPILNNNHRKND

CerS2^Δ335–380-HA = target: T4, CerS2^Δ335–380-HA (UniProt Q96G23); assay: as above
T4 sequence: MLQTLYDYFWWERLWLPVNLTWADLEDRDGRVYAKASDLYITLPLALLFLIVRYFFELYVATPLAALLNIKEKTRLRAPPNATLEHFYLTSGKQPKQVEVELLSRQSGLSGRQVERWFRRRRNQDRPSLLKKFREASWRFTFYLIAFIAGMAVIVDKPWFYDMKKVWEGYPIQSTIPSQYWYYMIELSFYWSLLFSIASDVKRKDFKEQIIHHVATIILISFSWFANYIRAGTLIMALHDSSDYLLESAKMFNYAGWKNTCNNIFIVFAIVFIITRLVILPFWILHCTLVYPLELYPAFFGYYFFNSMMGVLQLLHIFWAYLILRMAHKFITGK

CerS2(4A)-HA = target: T5, CerS2(4A)-HA (UniProt Q96G23); assay: as above
T5 sequence: T2 sequence with A212H, A213H, S341A, T346A, S348A, S349A

FATP6-Flag (human) = target: T6, FATP6-Flag (human) (UniProt Q9Y2P4); assay: co-IP; FATP-Flag transfected for 48 h into Hek293T (FATP2-Flag also into HepG2), lysis in 150 mM NaCl, 50 mM Tris–HCl pH 7.4, 1% Nonidet P-40, anti-DYKDDDDK resin overnight at 4 °C, blot for endogenous CerS2; for FATP2-Flag with or without FB1 (20 μM, 24 h)
T6 sequence: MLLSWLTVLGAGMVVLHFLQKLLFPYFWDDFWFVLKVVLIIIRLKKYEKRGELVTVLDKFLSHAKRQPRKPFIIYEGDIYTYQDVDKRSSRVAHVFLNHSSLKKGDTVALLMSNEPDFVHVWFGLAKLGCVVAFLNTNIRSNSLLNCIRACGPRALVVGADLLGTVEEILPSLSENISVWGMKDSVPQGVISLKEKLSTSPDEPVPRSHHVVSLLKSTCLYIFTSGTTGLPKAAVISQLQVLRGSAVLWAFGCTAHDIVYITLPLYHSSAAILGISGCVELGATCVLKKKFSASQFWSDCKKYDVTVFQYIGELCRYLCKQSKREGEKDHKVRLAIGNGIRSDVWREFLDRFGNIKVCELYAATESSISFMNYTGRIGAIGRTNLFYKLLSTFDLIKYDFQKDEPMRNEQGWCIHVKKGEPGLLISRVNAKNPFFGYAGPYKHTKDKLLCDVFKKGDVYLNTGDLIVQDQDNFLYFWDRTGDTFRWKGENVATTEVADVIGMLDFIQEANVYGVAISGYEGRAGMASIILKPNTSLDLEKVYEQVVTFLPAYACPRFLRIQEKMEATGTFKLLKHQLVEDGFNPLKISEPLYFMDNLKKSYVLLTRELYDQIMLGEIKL

FATP1-Flag (human) = FATP1-Flag (human) (UniProt Q6PCB7); assay: as above
FATP3-Flag (human) = target: T7, FATP3-Flag (human) (UniProt Q5K4L6); assay: as above
T7 sequence: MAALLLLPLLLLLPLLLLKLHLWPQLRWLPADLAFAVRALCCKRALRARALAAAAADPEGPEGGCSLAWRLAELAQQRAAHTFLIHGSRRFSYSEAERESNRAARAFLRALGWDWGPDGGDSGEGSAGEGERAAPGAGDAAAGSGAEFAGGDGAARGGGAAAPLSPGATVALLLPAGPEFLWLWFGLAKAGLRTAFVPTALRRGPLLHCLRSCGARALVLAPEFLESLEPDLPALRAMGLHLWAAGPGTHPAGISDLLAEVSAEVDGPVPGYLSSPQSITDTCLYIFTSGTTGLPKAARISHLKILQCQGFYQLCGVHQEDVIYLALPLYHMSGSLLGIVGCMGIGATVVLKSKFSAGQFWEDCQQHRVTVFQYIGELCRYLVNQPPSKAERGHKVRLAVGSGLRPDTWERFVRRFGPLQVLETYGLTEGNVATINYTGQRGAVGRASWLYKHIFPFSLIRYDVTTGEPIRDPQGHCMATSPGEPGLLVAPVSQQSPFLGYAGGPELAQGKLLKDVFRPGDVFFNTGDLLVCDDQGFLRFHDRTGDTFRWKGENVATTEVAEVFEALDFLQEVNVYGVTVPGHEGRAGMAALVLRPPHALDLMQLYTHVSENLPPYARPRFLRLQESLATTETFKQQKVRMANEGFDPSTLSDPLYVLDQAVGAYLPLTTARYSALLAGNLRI

FATP5-Flag (human) = target: T8, FATP5-Flag (human) (UniProt Q9Y2P5); assay: as above
T8 sequence: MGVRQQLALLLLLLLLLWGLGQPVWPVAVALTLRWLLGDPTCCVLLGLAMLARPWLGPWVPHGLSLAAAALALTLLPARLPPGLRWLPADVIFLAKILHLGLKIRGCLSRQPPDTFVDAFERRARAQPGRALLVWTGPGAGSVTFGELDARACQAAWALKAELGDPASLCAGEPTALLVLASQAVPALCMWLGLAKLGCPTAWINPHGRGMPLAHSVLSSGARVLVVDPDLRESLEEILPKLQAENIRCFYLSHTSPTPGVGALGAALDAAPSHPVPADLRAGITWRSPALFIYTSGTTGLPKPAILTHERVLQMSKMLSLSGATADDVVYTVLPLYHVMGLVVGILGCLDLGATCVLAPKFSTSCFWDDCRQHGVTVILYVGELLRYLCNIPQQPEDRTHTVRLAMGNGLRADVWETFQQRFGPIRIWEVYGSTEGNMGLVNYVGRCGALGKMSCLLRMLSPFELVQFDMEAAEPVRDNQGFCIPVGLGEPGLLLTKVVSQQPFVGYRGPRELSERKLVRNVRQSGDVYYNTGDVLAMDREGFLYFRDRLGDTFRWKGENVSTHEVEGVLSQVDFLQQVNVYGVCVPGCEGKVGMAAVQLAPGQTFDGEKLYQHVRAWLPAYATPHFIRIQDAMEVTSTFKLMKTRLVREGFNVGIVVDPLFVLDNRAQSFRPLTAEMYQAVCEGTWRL

FATP4-Flag (human) = FATP4-Flag (human) (UniProt Q6P1M0); assay: as above

Measured: binding

FATP2-Flag (from UniProt O14975 1-620)
binds: CerS2^Δ338–344-HA | CerS2^H212A-H213A-HA | CerS2^Δ68–118-HA | CerS2^Δ335–380-HA | CerS2(4A)-HA

CerS2 (endogenous in Hek293T and HepG2 cells) (from UniProt Q96G23 1-380)
binds: FATP6-Flag (human) | FATP1-Flag (human) | FATP3-Flag (human) | FATP5-Flag (human) | FATP4-Flag (human)
